Reference: patent US20260041793A1, “VIRAL VECTOR” (University of Sheffield, priority 2022, published 2026)

Tested on: Human HEK293T cells
Assay: Expression of CPPs from the CBh promoter in HEK293T cells
Format: cell-based
Settings: RNA polymerase II (CBh) promoter

Substance | expression of CPP from the protein-coding CBh promoter
GSWQDLKDHMREAGGGKPIPNPLLGLDSTGGYGRKKRRQRRR [CPP2, cell permeable peptide: SRSF1 amino acids 132-144, a V5 tag and TAT amino acids 47-57] | no expression
CPP1: cell permeable peptide, SRSF1 aa89-120 CPP (PRSGRGTGRGGGGGGGGGAPRGRYGPPSRRSE) | no expression
